Source: publication PMC12514197
Numbering of substitutions follows the chain as printed. Numbers in names are those of the source. No constants are given. Whether binding was seen depends on the method and setting. Some entries that bind do so weakly or less than the wild type. Tags and fused reporters may be left off the sequences shown.

Molecular target: T1, his-tagged DXD3 (LARGE1dTM D563N/D565N) (UniProt O95461)
T1 sequence: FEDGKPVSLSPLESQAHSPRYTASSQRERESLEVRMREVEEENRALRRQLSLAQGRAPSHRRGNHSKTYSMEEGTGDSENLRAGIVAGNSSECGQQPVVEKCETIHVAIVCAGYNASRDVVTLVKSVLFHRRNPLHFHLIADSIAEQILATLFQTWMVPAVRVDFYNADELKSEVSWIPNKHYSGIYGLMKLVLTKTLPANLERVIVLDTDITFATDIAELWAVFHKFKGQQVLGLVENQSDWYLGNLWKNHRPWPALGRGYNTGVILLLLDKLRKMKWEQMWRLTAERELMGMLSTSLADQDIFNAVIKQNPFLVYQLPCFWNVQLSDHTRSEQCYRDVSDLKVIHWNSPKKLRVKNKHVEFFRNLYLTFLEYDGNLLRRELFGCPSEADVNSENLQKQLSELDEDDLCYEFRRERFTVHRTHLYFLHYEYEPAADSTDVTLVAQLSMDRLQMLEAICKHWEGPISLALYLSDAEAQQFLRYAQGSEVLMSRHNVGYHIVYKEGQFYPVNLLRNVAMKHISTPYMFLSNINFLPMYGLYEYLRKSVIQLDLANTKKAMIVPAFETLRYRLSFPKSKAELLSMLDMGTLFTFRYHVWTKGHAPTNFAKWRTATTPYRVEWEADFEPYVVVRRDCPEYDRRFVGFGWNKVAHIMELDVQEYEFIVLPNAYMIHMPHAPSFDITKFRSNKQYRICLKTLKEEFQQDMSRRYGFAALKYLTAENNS
Experiment: tandem affinity purification; co-expression of two differently tagged LARGE1dTM protomers (FLAG-tagged DXD1 and his-tagged DXD3), then tandem affinity purification

binding: binds
B1: FLAG-tagged DXD1 (LARGE1dTM D242N/D244N) (enzyme, UniProt O95461 34-756)
chain: T1 sequence with D209N, D211N, N530D, N532D
